Source: paper PMC9236769
These are yes or no findings as the source states them, for the method shown. In cells and extracts the contact can be indirect.

By UniProt entry, the sequences of proteins in these tests, tags left out. Residues count along the entry.
UniProt Q99497: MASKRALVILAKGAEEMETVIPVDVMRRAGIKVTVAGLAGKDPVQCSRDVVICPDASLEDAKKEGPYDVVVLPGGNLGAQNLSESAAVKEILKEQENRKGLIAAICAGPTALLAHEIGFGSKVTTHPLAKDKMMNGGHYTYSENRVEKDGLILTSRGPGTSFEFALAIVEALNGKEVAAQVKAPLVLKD
UniProt P11362, residues 22-822: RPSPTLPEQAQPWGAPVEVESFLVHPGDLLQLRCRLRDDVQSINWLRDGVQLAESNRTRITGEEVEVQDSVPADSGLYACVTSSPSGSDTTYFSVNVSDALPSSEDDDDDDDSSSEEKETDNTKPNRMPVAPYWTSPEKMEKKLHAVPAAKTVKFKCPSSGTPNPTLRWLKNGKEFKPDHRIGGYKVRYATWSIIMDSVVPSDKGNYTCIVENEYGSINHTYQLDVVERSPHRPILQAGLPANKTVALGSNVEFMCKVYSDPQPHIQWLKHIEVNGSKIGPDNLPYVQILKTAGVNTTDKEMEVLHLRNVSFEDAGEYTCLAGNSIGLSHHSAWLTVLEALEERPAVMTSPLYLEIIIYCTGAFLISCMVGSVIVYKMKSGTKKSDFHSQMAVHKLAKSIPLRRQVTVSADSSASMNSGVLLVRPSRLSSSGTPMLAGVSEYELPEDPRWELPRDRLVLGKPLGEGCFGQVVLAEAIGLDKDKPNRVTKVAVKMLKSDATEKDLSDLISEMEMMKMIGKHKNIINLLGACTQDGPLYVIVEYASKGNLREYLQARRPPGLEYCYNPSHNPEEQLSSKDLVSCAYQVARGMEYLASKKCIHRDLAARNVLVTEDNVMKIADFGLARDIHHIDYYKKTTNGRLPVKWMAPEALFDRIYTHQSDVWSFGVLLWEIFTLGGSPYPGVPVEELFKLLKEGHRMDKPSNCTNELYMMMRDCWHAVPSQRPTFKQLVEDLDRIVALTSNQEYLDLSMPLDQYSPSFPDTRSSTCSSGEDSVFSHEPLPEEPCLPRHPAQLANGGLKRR

Biological target: protein deglycase DJ-1 (human) (UniProt Q99497)
Assay: co-IP; cells lysed in RIPA lysis buffer; 1.5 mg protein incubated with protein A+G agarose and anti-DJ-1 rabbit pAb overnight at 4°C; bound proteins analysed by western blotting

Question: Which binding does the source give for “Fibroblast growth factor receptor 1 (from UniProt P11362 22-822)” here?
Answer: no binding
